Assay: Imaging of cellular localization
Type: cell-based
Conditions: FIG. 2

Substance | cellular localization
Rhod-2 | mitochondrial localization
Fluo-4 | green cytosolic signal
